“And” between values parts separate entries of the source, which are not always exact repeats. Equal entries are not always repeated. Out of some 310,000 compounds screened, about 17,000 (5.5%) were called active. Inconclusive results, whose numbers are uncertain, are shown with a selection of clear calls. Calls come from the whole dose curve; as a rule, active = well fitted inhibition curve with a large enough effect; inconclusive = small, poorly fitted or top-dose-only effect, or effect the other way; inactive = no such curve, though single readings can be large or run the other way. Potencies beside an inconclusive call are fits to weak or partial responses and may not hold up. Where a SMILES comes first, the peptide text is derived from it. [ ]: non-standard residue; d: D form. The star is where a group is joined. ξ: configuration not given here. ξY = NC(Cc1ccc(O)cc1)C(=O)O; Cbz = O=C(OCc1ccccc1)*; OtBu = CC(C)(C)O*; tBu = CC(C)(C)*
The compounds below were run against Nuclear receptor ROR-gamma (Mus musculus) (UniProt P51450) (assay: qHTS for inhibitors of ROR gamma transcriptional activity). Settings: Drosophila S2 Gal4-RORgamma UAS-luciferase reporter, 20 h; activity change, negative = inhibition: at 53.6 µM (top of the series).
Outline: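 Drosophila S2 cells stably expressing Gal4-DBD/mouse RORγ fusion under metallothionein promoter plus UAS-luciferase; compound 1 h, then 700 uM CuSO4 induction for 20 h at ambient temperature; inhibition read as reduced luminescence.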
% is set by controls: 0 for no effect and ±100 for the full control effect; potency is the fitted concentration of half-maximal effect.
Note: nearly all actives have a fitted effect of over 60% in size.

Protein sequences, listed by entry. Tags and fused reporters are not part of them. Lines headed by an entry give the natural chain unless they say otherwise; changes in a name come on top.
UniProt P51450: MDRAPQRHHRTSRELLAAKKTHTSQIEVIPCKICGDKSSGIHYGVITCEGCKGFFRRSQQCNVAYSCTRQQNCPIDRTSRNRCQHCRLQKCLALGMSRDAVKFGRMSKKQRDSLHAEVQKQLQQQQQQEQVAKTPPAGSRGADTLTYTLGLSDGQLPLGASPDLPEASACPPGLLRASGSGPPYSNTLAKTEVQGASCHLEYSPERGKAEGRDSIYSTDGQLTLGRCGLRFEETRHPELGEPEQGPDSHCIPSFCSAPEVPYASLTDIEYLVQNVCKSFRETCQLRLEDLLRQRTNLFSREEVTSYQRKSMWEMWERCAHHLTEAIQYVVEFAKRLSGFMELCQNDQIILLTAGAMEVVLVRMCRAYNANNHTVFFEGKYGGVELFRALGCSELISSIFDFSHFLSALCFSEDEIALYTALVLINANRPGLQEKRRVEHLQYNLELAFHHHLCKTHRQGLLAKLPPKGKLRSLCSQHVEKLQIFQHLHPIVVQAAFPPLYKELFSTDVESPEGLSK

Row | Structure (SMILES) | Potency | activity change, negative = inhibition
1 | COc1ccc(S(=O)(=O)c2ccc(OC)c(OC)c2)cc1OC | inconclusive: 6.31 µM [inhibitor, single point] | 
2 | O=C(NCCc1ccccc1)c1ccccc1NC(=O)C1CCCO1 (configuration not stated) | inconclusive: 8.91 µM [inhibitor, partial curve] | 
3 | CCN1C(=S)N[C@@H](c2cccc(F)c2)C(C(=O)OC)=C1C | active: 4.47 µM and active: 5.01 µM | 
4 | CCC(C)(C)n1nnnc1C(c1ccc(OC)c(OC)c1)N1CCN(c2ccc(F)cc2)CC1 (configuration not stated) | inconclusive: 35.5 µM [activator, single point] | 
5 | CCn1c(SCC(=O)Nc2ccc(N(C)C)cc2)nnc1-c1cccc(C)c1 | inconclusive: 35.5 µM [inhibitor, single point] | 
6 | CCC(C)(C)c1ccc(OCCCC[n+]2cccc(C)c2C)c(C(C)(C)CC)c1 | inconclusive: 31.6 µM [inhibitor, single point] | 
7 | O=S(=O)(NCc1csc(-c2cccs2)n1)c1ccccc1 | inconclusive: 17.8 µM [activator, single point] | 
8 | CCCCCOc1ccc(/C(C)=N/NC2=NCCN2)cc1 | inconclusive: 15.8 µM [inhibitor, single point] | 
9 | Cc1ccc(S(=O)(=O)NCc2ccncc2)cc1C | active: 11.2 µM | 
10 | c1ccc2c(c1)CCOC2CNCCCN1CCCCC1 (configuration not stated) | inconclusive: 5.62 µM [activator, single point] | 
11 | CC(C)c1ccc(CN(C(=O)c2cc3ccccc3oc2=O)C2CCS(=O)(=O)C2)cc1 (configuration not stated) | inconclusive: 12.6 µM [activator, single point] | 
12 | C=CCCC(=O)N1CCCC(Cc2cccc(Cl)c2)(C(=O)OCC)C1 (configuration not stated) |  | inactive: 13.8%
13 | CCc1ccc(-n2cc(-c3ccc([N+](=O)[O-])cc3)[nH]c2=S)cc1 | active: 11.2 µM | 
14 | CCCc1nc2ccccc2c(NC(=O)CN(CC)CC)c1CC |  | inactive: -3.72%
15 | COC(=O)c1cc(S(=O)(=O)N2CCN(c3ccc([N+](=O)[O-])cc3)CC2)c[nH]1 | inconclusive: 12.6 µM [activator, single point] | 
16 | Cc1cc(-c2nnc3n2N=C(c2ccc(F)cc2)CS3)n[nH]1 |  | inactive: 2.35%
17 | O=C(Nc1ccc(-c2cn3ccsc3n2)cc1)c1ccc(F)c(S(=O)(=O)N2CCOCC2)c1 | inconclusive: 35.5 µM [activator, single point] | 
18 | Cc1ccc(-c2nc(CS(=O)CC(=O)NCc3ccc(Cl)cc3)c(C)o2)cc1 (configuration not stated) | active: 12.6 µM | 
19 | Cc1ccsc1/C=N/n1c(C2CCCCC2)n[nH]c1=S | active: 2.51 µM | 
20 | O=C(CO/N=C/c1ccc(OC(F)F)cc1)NCc1ccco1 | inconclusive: 14.1 µM [activator, single point] | 
21 | O=C(NC1CC1)c1sc2cc([N+](=O)[O-])ccc2c1Cl | inconclusive: 8.91 µM [activator, partial curve] | 
22 | COc1ccc2c(C)nc(Nc3nc(C)c(C)c(=O)[nH]3)nc2c1 | active: 5.01 µM | 
23 | CNC(=O)C1(C(F)(F)F)C/C(=C/CCO)CCCO1 (configuration not stated) |  | inactive: 1.2%
24 | O=C(c1ccc2c(=O)n(Cc3ccccc3Cl)c(=S)[nH]c2c1)N1CCOCC1 | inconclusive: 14.1 µM [inhibitor, single point] | 

Row | Structure (SMILES) | Potency | activity change, negative = inhibition
25 | O=C(NCC1CCCO1)c1nn2c(C(F)(F)F)cc(-c3ccc(Br)o3)nc2c1Br (configuration not stated) | inconclusive: 14.1 µM [activator, partial curve] | 
26 | O=c1c2sccc2[nH]c(=S)n1-c1ccccc1 | inconclusive: 3.16 µM [inhibitor, full curve] | 
27 | CCNC(=O)NC(=O)C(C)OC(=O)Cc1coc2cc3c(cc12)CCC3 (configuration not stated) | inconclusive: 35.5 µM [activator, single point] | 
28 | COc1ccc(C(C)NC(=S)NC2CCCC2)cc1OC (configuration not stated) | inconclusive: 35.5 µM [inhibitor, single point] | 
29 | CC(C)=NNc1nc2sc3c(c2c(=O)[nH]1)CC(C)(C)OC3 |  | inactive: -13.5%
30 | Cc1ccccc1OCCn1cc(C(=S)N2CCN(C)CC2)c2ccccc21 | active: 12.6 µM | 
31 | CC(=O)c1c(C)oc2ccc(N(C(C)=O)S(=O)(=O)c3cccc4cccnc34)cc12 |  | inactive: 16.6%
32 | O=C(NC(=S)N1CCN(c2ccc(F)cc2)CC1)C12CC3CC(CC(C3)C1)C2 | active: 1.26 µM | 
33 | Cc1ccc(S(=O)(=O)N2CCCCC2)cc1NC(=O)CSc1ccc2c(c1)OCCO2 |  | inactive: 3.17%
34 | Cc1ccc(C(C(=O)NCc2ccco2)N(C(=O)CNC(=O)c2cccs2)c2ccc(C)cc2C)cc1 (configuration not stated) |  | inactive: -24.8%
35 | O=C(Nc1ccc(Br)cc1)NC1CCCCCCC1 | inconclusive: 1.78 µM [activator, partial curve] | 
36 | CSc1ccc(CC(=O)N2CCC(n3nccc3NC(=O)C3CC3)CC2)cc1 |  | inactive: -1.01%
37 | Cc1cnc(C(=O)OCC(=O)Nc2ccc(C)c(S(=O)(=O)N(C)C)c2)cn1 |  | inactive: 0.457%
38 | CN(c1ccccc1)S(=O)(=O)c1ccc(NC(=O)c2nc(S(C)(=O)=O)ncc2Cl)cc1 | active: 6.31 µM | 
39 | OCCCNC(=S)Nc1ccc2nccnc2c1 |  | inactive: 19.4%
40 | N#CC1=C(N)Oc2c(oc(CO)cc2=O)C1c1cccs1 (configuration not stated) |  | inactive: -11.9%
41 | COc1ccc(C(=O)N2CCC[C@@]3(CCN(c4cccc(-c5ccccc5)c4)C3)C2)cc1 |  | inactive: 26.7%
42 | N#Cc1cnn(-c2ncnc3sc4c(c23)CCCC4)c1N | inconclusive: 0.0282 µM [inhibitor, full curve, poor fit] | 
43 | COc1ccc(CNc2nc(NCc3ccc(OC)cc3)c3ncn(C4CCCCC4)c3n2)cc1 | inconclusive: 6.31 µM [inhibitor, full curve, poor fit] | 
44 | Cc1ccccc1NC(=S)NC(NC(=O)c1ccccc1C)C(Cl)(Cl)Cl (configuration not stated) | inconclusive: 35.5 µM [inhibitor, single point] | 
45 | O=[N+]([O-])c1cc(S(=O)(=O)Nc2ccccc2)ccc1N1CCN(c2ccccc2)CC1 | inconclusive: 2.82 µM [activator, full curve] | 
46 | O=C(Nc1ccc2c(c1)OCCO2)c1ccccc1 | inconclusive: 17.8 µM [inhibitor, single point] | 
47 | COc1ccc(-c2noc(CNC(=O)C(C)Oc3ccccc3)n2)cc1 (configuration not stated) |  | inactive: 0.639%
48 | O=C(CSc1nc2ccccc2c(=O)n1Cc1ccco1)N1CCN(c2ccccc2)CC1 | inconclusive: 14.1 µM [activator, single point] | 

Random excerpt: 6 entries already listed, in no set order.
Row | Structure (SMILES) | Potency | activity change, negative = inhibition
28 | COc1ccc(C(C)NC(=S)NC2CCCC2)cc1OC (configuration not stated) | inconclusive: 35.5 µM [inhibitor, single point] | 
25 | O=C(NCC1CCCO1)c1nn2c(C(F)(F)F)cc(-c3ccc(Br)o3)nc2c1Br (configuration not stated) | inconclusive: 14.1 µM [activator, partial curve] | 
29 | CC(C)=NNc1nc2sc3c(c2c(=O)[nH]1)CC(C)(C)OC3 |  | inactive: -13.5%
30 | Cc1ccccc1OCCn1cc(C(=S)N2CCN(C)CC2)c2ccccc21 | active: 12.6 µM | 
38 | CN(c1ccccc1)S(=O)(=O)c1ccc(NC(=O)c2nc(S(C)(=O)=O)ncc2Cl)cc1 | active: 6.31 µM | 
39 | OCCCNC(=S)Nc1ccc2nccnc2c1 |  | inactive: 19.4%

Later entries:

Row | Structure (SMILES) | Potency | activity change, negative = inhibition
49 | CN1CCN(C(=S)c2cn(Cc3ccc(Br)cc3)c3ccccc23)CC1 | active: 25.1 µM | 
50 | Clc1cccc(CON/C=N/c2ncnc3sccc23)c1 | inconclusive: 14.1 µM [activator, single point] | 
51 | Cc1ccc(Nc2nc(NCc3ccco3)c3ccccc3n2)cc1 | inconclusive: 35.5 µM [inhibitor, single point] | 
52 | CSc1ccc(N2C(=O)NC3(CCCCC3)C2=O)cc1 | inconclusive: 0.708 µM [activator, full curve, poor fit] | 
53 | Cc1cc(NC(=O)CSc2nc3cc(C(=O)NCCCOC(C)C)ccc3c(=O)n2Cc2ccco2)no1 |  | inactive: -1.4%
54 | CC1(C)Cc2c(sc(NC(=O)c3ccc(C(=O)c4ccccc4)cc3)c2C(N)=O)C(C)(C)N1 | inconclusive: 35.5 µM [inhibitor, single point] | 
55 | COc1ccc(CN=C2NC(=O)CC(C(=O)Nc3ccc([N+](=O)[O-])cc3C)S2)cc1 (configuration not stated) | inconclusive: 20 µM [activator, single point] | 
56 | CCC(CNc1cc(OC)cc2cccnc12)NC1CCCCC1 (configuration not stated) | active: 15.8 µM | 
57 | COc1cc2nc(NCCCN3CCN(C)CC3)n3nc(-c4ccccc4)nc3c2cc1OC |  | inactive: 0.732%
58 | Cc1cc(C)nc(Nc2nc(C)c3cc4c(cc3n2)OCO4)n1 | active: 7.08 µM | 
59 | Cc1ccccc1NC(=O)/C(=C/c1ccccc1)c1ccccc1 | inconclusive: 14.1 µM [activator, single point] | 
60 | CC(C)NC(=S)N/N=C1\CCCCc2ccccc21 | active: 0.794 µM | 
61 | O=C1N/C(=C/c2ccsc2)C(=O)N1c1ccccc1 | inconclusive: 14.1 µM [activator, single point] | 
62 | CC1CCN(C(=O)CSc2nnc(-c3ccncc3)n2C)CC1 | inconclusive: 5.01 µM [activator, full curve, poor fit] | 
63 | CC(C)(C)c1ccc(-c2nc(C#N)c(NCCCn3ccnc3)o2)cc1 | inconclusive: 22.4 µM [inhibitor, single point] | 
64 | Cc1nc2ccc(NC(=O)N3CCSCC3)cc2nc1C |  | inactive: 29.6%
65 | Cc1c(-c2ccccc2)oc2c(C(=O)OCC(=O)Nc3ccc(C(N)=O)cc3)cccc2c1=O |  | inactive: -10.3%
66 | CCOc1ncccc1C(=O)OCC(=O)N1CC(=O)Nc2ccccc21 | inconclusive: 0.112 µM [activator, partial curve] | 
67 | COc1ccc(CCNC(=O)c2ccc(Cl)c(S(=O)(=O)N(C)c3ccccc3)c2)cc1 | inconclusive: 3.98 µM [activator, full curve] | 
68 | S=c1[nH]cnc2sc(Nc3ccccc3)nc12 | active: 1 µM | 
69 | Cc1cc(CNC(=O)c2cccc(OC3CCN(S(=O)(=O)N(C)C)CC3)c2)on1 | inconclusive: 0.891 µM [activator, full curve] | 
70 | CC(C)(C)OC(=O)C(Cc1ccc(OC(C)(C)C)cc1)NC(=O)CNC(=O)CNC(=O)OCc1ccccc1 (stereo not drawn) (Cbz-Gly-Gly-[ξY](tBu)-OtBu) | inconclusive: 25.1 µM [activator, single point] | 
71 | Cc1ccccc1COC(=O)c1cc([N+](=O)[O-])ccc1N1CCOCC1 | inconclusive: 7.08 µM [activator, full curve, poor fit] | 
72 | CCN(CC)CCn1c(NC(=O)c2ccc(C(F)(F)F)cc2)nc2ccccc21 | active: 0.224 µM | 

From PubChem BioAssay AID2551 (National Center for Advancing Translational Sciences (NCATS), 2010)
